Our source for the binding values is article PMC7257154.

Results are given in words; binding and its absence hold for the method and conditions named. In cells and extracts the contact can be indirect. Binding can be weak; no strength is given. Sequences can lack the tags named with a protein.

The target of this assay is native Smad1 (Xenopus laevis (endogenous in embryos)). As to the kind of experiment: co-IP; lysate of late gastrula Xenopus laevis embryos injected with RNA of the Myc-tagged construct; native Smad1 precipitated with anti-Smad1 and Dynabeads Protein G, blot with anti-Myc; lysis buffer 150 mM NaCl, 20 mM Tris pH 7.5, 1% Nonidet P-40, 1 mM EDTA; 4 °C overnight; normal rabbit IgG as control.

B1: Myc-Tbx2ΔN (domain or fragment, UniProt B7ZQY8 54-688)
chain: DASLAGAAEAGLHLSALGHHHQAAHLRSLKSLEPEEEVEDDPKVNLEAKELWDQFHKIGTEMVITKSGRRMFPPFKVRVSGLDKKAKYILLMDIVAADDCRYKFHNSRWMVAGKADPEMPKRMYIHPDSPATGEQWMAKPVAFHKLKLTNNISDKHGFTILNSMHKYQPRFHIVRANDILKLPYSTFRTYVFPETDFIAVTAYQNDKITQLKIDNNPFAKGFRDTGNGRREKRKQLSLPSLRMYEEQCKADRDGAESDASSCDPAPGRDSLHSPLSAEPSPLRLHRNNREEKFGADSDQELDRREIRSARSHSPVGHRSPPSSPRLEDRGKDKSTPEKKSDSPESRKDGSDSLFSSIRSLEKDKAESRRKEDSKSDPECGSLSKETFAPLMVQTDSPPHLSASHLQSLALSGLHGQQFFNPLNAGQPLFIHPGQFTMGPGAFSAMGMGHLLASMTGAGALDNGSLSSVQGATGAANPFPFHFSQHMLASQGIPMPAFGGLFPYPYTYMAAAAAAASAMPATSAATTMPRNPFLSSTRPRLRFNPYQIPVGIPPSTNLLTTGLPGSLNPGSESSKPGSSRESSPIPDTPVPKRSHSNSLSPKASMKDSINELQNIQRLVSGLESQREISPGRETPK
As for B1, the binding entry is given as “binds”.
